The other results are listed elsewhere or left out.
Each target was assayed with COc1ccc(Cn2ccc3ccc(C(=O)NO)cc32)cc1 (assay: dose-dependent thermal stabilisation call (2D-TPP, DLPTP, 10% FDR) (binary (1 = stabilised)); higher = stabilised by the compound). Details: system: HL-60 intact cells; concentration range 0.04-10 µM.

Sequences of proteins named here, by UniProt entry; tags and fusion partners are left off. A change or cut given only in a name is not applied to a line headed by its entry.
UniProt Q01658: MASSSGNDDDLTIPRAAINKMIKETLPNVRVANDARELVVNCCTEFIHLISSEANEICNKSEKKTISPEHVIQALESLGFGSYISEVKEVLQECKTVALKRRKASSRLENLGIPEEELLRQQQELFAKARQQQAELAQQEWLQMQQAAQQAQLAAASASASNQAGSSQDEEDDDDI
UniProt Q5F1R6: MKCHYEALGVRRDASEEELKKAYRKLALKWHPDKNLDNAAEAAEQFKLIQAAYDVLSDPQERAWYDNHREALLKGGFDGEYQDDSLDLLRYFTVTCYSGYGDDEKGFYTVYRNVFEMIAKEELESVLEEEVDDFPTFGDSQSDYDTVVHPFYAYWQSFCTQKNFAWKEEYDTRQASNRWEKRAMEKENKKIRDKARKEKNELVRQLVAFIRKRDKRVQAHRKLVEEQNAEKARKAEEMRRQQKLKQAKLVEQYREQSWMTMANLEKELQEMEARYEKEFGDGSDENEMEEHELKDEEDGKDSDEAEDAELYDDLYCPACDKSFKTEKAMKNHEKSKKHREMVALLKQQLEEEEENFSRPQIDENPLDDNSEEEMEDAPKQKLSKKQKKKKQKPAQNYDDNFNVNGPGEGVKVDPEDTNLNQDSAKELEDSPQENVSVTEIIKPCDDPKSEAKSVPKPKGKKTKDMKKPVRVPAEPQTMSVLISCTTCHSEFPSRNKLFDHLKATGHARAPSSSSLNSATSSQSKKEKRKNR
UniProt Q9H8V3: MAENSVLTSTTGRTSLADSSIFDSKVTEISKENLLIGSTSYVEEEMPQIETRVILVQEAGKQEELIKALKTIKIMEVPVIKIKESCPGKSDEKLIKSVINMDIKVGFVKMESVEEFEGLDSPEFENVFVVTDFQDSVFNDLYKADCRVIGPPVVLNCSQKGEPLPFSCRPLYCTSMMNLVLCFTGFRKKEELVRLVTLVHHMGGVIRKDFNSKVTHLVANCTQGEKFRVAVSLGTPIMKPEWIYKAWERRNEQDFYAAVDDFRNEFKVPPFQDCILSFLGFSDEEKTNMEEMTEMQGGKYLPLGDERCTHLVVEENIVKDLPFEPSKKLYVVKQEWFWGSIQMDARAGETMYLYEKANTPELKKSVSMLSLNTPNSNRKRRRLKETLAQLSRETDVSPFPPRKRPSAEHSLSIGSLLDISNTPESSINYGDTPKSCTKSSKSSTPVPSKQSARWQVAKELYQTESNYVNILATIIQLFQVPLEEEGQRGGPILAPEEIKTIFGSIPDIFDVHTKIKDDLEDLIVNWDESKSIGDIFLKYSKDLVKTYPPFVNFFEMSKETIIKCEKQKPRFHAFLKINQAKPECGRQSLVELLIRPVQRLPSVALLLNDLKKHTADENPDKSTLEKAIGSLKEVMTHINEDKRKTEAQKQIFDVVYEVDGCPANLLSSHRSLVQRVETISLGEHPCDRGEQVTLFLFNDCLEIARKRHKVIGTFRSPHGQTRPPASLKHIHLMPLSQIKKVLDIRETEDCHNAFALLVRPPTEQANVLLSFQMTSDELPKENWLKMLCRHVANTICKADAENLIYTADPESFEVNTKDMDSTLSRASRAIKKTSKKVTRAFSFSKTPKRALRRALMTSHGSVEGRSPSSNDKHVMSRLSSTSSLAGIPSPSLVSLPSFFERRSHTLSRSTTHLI
UniProt Q9Y6I3: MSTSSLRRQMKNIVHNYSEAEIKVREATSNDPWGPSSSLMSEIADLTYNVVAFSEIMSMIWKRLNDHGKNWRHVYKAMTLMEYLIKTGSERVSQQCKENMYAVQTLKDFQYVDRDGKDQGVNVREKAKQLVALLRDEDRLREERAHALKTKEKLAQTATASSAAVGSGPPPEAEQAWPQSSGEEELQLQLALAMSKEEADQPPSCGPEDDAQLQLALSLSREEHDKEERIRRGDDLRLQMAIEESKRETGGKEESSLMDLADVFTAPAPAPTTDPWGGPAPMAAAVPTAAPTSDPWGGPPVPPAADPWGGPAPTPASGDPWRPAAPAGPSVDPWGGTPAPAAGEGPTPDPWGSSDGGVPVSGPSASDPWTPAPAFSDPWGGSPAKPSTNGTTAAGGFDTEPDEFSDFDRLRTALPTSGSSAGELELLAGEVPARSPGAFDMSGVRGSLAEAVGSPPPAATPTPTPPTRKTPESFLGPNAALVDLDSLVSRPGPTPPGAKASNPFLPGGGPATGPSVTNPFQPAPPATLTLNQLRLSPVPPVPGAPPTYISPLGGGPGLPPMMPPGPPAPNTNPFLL
UniProt Q9UKV8, whole entry: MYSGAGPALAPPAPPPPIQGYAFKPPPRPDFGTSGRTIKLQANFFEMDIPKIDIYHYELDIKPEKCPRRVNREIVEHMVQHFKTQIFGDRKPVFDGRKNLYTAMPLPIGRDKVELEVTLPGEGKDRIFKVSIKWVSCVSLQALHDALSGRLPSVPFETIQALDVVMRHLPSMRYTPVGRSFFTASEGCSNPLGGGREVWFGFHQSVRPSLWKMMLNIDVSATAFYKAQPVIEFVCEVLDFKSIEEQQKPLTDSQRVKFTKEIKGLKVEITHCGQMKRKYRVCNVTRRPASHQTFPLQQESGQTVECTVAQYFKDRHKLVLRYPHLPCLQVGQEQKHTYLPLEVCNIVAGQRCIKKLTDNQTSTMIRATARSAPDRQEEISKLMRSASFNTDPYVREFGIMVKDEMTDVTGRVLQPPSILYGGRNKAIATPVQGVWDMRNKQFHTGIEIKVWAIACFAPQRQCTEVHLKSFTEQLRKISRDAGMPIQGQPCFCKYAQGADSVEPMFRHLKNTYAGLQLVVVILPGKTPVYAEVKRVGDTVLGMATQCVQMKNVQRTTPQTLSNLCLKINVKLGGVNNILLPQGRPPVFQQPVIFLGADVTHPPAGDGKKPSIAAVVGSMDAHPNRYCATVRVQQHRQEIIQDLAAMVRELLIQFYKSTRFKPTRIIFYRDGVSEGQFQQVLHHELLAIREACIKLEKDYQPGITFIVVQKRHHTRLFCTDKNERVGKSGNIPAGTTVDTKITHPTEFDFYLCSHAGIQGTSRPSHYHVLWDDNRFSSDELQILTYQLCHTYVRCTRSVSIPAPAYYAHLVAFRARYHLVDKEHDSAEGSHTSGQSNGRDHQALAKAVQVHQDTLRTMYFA
UniProt O00429, whole entry: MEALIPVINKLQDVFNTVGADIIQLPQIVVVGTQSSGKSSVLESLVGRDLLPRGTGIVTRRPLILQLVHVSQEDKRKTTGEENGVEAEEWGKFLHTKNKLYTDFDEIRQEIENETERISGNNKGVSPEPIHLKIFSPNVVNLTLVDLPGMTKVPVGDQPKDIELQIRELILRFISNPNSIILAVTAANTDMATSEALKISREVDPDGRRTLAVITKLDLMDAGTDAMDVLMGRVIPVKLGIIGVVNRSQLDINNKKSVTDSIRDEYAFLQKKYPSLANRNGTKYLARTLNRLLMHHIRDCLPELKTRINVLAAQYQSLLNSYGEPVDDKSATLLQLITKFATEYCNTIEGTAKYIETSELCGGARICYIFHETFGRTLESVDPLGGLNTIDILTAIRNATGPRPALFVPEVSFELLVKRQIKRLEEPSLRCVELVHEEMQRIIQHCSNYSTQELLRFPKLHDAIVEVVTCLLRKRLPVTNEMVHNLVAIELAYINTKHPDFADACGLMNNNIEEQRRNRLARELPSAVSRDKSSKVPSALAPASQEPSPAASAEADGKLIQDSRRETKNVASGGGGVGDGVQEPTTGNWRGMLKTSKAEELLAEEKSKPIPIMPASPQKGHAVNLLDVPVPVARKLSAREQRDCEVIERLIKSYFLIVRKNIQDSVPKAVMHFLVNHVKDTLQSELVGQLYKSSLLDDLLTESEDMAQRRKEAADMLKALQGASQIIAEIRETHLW
UniProt Q14240, whole entry: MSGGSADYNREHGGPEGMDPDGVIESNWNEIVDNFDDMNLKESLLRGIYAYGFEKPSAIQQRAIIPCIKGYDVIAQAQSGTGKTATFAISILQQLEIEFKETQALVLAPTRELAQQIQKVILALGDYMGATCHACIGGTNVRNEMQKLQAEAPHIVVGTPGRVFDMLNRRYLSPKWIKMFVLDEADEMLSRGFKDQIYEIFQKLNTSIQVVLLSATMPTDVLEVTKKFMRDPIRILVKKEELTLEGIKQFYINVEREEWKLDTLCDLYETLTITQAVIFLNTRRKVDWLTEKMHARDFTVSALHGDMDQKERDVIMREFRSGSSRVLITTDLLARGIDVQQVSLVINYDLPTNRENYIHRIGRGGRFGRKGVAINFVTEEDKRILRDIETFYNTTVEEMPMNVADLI
UniProt Q9Y282: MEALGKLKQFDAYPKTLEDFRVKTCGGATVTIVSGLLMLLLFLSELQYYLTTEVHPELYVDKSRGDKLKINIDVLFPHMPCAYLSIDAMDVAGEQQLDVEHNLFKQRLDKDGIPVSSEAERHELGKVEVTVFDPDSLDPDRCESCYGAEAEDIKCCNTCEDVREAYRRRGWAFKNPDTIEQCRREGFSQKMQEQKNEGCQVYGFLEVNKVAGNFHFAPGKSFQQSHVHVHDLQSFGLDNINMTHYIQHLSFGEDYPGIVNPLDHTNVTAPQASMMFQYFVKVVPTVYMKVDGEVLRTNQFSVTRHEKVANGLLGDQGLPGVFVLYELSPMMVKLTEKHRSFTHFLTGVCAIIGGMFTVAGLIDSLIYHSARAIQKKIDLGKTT
UniProt Q9BQ52: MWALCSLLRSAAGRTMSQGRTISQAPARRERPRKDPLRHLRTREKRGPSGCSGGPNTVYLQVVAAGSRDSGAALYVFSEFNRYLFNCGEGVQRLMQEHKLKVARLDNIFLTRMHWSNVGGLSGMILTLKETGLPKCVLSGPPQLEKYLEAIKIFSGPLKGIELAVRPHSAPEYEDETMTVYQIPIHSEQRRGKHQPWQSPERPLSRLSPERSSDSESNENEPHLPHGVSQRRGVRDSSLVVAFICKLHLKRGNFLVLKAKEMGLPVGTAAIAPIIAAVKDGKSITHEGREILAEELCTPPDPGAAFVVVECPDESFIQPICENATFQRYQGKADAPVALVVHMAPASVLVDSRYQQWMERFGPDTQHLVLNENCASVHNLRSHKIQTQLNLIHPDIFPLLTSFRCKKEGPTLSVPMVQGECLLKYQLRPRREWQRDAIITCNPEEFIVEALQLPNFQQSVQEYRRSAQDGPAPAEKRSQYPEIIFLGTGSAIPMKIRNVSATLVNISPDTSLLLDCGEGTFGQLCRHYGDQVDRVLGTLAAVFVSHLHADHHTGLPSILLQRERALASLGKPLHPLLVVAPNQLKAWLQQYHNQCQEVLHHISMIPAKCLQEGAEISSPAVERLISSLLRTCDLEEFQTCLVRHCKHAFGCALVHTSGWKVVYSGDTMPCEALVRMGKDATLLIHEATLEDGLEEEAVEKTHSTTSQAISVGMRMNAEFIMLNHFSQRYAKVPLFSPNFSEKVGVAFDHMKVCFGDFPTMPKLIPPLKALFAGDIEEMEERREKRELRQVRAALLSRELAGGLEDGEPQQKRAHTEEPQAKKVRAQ
UniProt Q9H147: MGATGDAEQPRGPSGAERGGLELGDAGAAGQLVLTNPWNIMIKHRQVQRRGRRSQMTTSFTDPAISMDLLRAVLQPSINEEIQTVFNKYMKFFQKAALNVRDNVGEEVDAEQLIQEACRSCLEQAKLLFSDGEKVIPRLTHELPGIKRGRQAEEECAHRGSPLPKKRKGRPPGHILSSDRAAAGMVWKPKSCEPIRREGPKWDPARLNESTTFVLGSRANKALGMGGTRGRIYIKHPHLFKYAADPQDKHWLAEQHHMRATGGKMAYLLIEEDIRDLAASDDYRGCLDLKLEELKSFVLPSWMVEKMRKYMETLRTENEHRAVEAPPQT
UniProt O43324: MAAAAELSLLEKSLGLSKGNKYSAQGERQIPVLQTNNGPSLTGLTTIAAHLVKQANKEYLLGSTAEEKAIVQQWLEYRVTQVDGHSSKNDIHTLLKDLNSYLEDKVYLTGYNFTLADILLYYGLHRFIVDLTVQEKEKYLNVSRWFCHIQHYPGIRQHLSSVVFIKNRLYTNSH
UniProt O60739, whole entry: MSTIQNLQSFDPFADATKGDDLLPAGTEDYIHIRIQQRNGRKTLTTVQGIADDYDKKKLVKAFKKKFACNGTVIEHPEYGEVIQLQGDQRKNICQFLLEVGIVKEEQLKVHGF
UniProt P07992: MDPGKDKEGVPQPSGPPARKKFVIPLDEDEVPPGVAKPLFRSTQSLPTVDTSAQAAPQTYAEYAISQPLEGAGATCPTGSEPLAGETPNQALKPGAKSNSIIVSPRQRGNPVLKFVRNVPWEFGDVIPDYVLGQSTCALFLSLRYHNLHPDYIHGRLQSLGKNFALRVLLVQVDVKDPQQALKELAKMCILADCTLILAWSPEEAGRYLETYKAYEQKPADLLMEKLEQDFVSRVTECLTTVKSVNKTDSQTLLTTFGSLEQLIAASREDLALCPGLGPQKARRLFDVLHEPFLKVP

Row | Target | dose-dependent thermal stabilisation call
1 | DNTTIP2 (UniProt Q5QJE6) | inactive: 0
2 | DIDO1 (UniProt Q9BTC0) | inactive: 0
3 | EPM2AIP1 (UniProt Q7L775) | inactive: 0
4 | DIP2B (UniProt Q9P265) | inactive: 0
5 | DUS1L (UniProt Q6P1R4) | inactive: 0
6 | ELMO2 (UniProt Q96JJ3) | inactive: 0
7 | DPYSL2 (UniProt Q16555) | inactive: 0
8 | EHD1 (UniProt Q9H4M9) | inactive: 0
9 | EARS2 (UniProt Q5JPH6) | inactive: 0
10 | EIF4ENIF1 (UniProt Q9NRA8) | inactive: 0
11 | ERI3 (UniProt O43414) | inactive: 0
12 | EIF2C3 (UniProt Q9H9G7) | inactive: 0
13 | EIF2S1 (UniProt P05198) | inactive: 0
14 | DR1 (UniProt Q01658) | inactive: 0
15 | DNAJC25 (UniProt Q9H1X3) | inactive: 0
16 | DNAJC21 (UniProt Q5F1R6) | inactive: 0
17 | ELF1 (UniProt P32519) | inactive: 0
18 | EIF4A1 (UniProt P60842) | inactive: 0
19 | ENO2 (UniProt P09104) | inactive: 0

Row | Target | dose-dependent thermal stabilisation call
20 | DSCC1 (UniProt Q9BVC3) | inactive: 0
21 | ECT2 (UniProt Q9H8V3) | inactive: 0
22 | DKFZP761E198 | inactive: 0
23 | EPN1 (UniProt Q9Y6I3) | inactive: 0
24 | EPDR1 (UniProt Q9UM22) | inactive: 0
25 | EIF4H (UniProt Q15056) | inactive: 0
26 | EIF2C2 (UniProt Q9UKV8) | inactive: 0
27 | DNM1L (UniProt O00429) | inactive: 0
28 | EIF4A2 (UniProt Q14240) | inactive: 0
29 | EMG1 (UniProt Q92979) | active: 1
30 | ERGIC3 (UniProt Q9Y282) | inactive: 0
31 | ELAC2 (UniProt Q9BQ52) | inactive: 0
32 | DNTTIP1 (UniProt Q9H147) | inactive: 0
33 | DKFZP686O24166 | inactive: 0
34 | ELL (UniProt P55199) | inactive: 0
35 | ERCC5 (UniProt P28715) | inactive: 0
36 | EEF1E1 (UniProt O43324) | inactive: 0
37 | EIF1B (UniProt O60739) | inactive: 0
38 | ERCC1 (UniProt P07992) | inactive: 0

Some of the entries so far, as tab-separated lines.
Row	Target	dose-dependent thermal stabilisation call
3	EPM2AIP1 (UniProt Q7L775)	inactive: 0
4	DIP2B (UniProt Q9P265)	inactive: 0
23	EPN1 (UniProt Q9Y6I3)	inactive: 0

— the supplement of paper PMC7666118
